In article PMC7819943, “Rice protein-binding microarrays: a tool to detect cis-acting elements near promoter regions in rice” one finds binding signal data, which are given here for 42 sequences.

The list shows a part of the results.

The assay concerns the target T1, OsSMF1 (Oryza sativa, UniProt Q6ZLB0 1-436).
T1 sequence: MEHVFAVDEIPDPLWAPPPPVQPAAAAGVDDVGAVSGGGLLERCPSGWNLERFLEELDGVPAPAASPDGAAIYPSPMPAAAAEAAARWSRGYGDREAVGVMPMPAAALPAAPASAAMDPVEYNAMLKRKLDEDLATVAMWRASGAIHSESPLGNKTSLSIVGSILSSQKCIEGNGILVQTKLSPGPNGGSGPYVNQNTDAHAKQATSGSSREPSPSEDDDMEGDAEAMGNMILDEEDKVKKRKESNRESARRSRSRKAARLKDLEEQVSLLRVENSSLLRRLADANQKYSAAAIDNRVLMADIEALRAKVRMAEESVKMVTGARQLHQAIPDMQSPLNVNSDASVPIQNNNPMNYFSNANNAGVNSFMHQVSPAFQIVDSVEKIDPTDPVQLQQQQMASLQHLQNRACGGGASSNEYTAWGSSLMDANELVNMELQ
Briefly: protein-binding microarray (RPBM); PBS, 2% BSA, 51.3 ng/ul salmon testes DNA, 50 uM zinc acetate, 200 nM TF, 25 C, 1 h; high values mean tight binding. Particulars: protein: recombinant; tags: N-terminal polyhistidine and DsRed monomer fusion (pET32a); chain copies: 2; label: CyDye5-dUTP incorporated in the synthesized complementary strand; 3' TTTTT single-stranded linker to array surface; dsDNA, one strand shown. The essentials: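 In PBS with 2% BSA, salmon testes DNA and 50 µM zinc acetate, 200 nM protein was incubated on a custom Agilent array at 25 °C for 1 h and then washed off. The array had been made double-stranded by primer extension with Cy5-dUTP and blocked with 2% BSA. The proteins were transcription factors fused N-terminally to polyhistidine and DsRed, expressed in E. coli BL21-CodonPlus and purified on Ni–NTA. The binding signal is per-feature fluorescence intensity (arbitrary units) from an Axon 4000B scanner.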
Turning to “TTTAGCATAGTCCAGTCAACTCATAGCACAATTCTCAATCCGGAGTCACCTAGTGCAG”, the binding signal was 3620 fluorescence intensity (a.u.).

In the case of “ACTTTACCCTAGTGGTGGCGTGGATCGGCAAAGTTGGGCCCGGAGTCACCTAGTGCAG”, the binding signal is 4330 fluorescence intensity (a.u.).

Consider “CCTGCCCGTTTCAGACCTCGGCGCGTGCACATATATACCACGGAGTCACCTAGTGCAG”, for which the binding signal is 26300 fluorescence intensity (a.u.).

As to “ACAGATGTTATTGTTGCTGCTCCACCGTGGAGGCGCTAGTCGGAGTCACCTAGTGCAG”, the binding signal was 4230 fluorescence intensity (a.u.).

Consider “GATGAGTGGATAATGTGTCTCTTCCAGTTGGATGAGTAAGCGGAGTCACCTAGTGCAG”, for which the binding signal was 3370 fluorescence intensity (a.u.).

As to “GACTACCATTTTAAGAAGTACAGTGTCATCAGGCACCAGCCGGAGTCACCTAGTGCAG”, the binding signal was 3500 fluorescence intensity (a.u.).

On to “TACATTCTCTACATTTGTGCCACCAACACAGTTTGTAATGCGGAGTCACCTAGTGCAG”, for which the binding signal is 4180 fluorescence intensity (a.u.).

“TGATGTGAACTTAACTTGTCTTACGTGGATGATTCCGTGTCGGAGTCACCTAGTGCAG”: the binding signal was 13100 fluorescence intensity (a.u.).

For the sequence “GAGTATGGTTGTTATGCATGACAGCGGCTTATAGTCGACTCGGAGTCACCTAGTGCAG”, the binding signal is 3940 fluorescence intensity (a.u.).

Regarding “CCGTCTCCTCTGCTTCTCCCACAGCTCCGGCGACAATCCACGGAGTCACCTAGTGCAG”, the binding signal is 3230 fluorescence intensity (a.u.).

Take “CGAAAAGAAAATTATCCTTTGATATGTTGCAAATCAAGTGCGGAGTCACCTAGTGCAG”: the binding signal was 29100 fluorescence intensity (a.u.).

On to “CGCTCAACGCATGCCTTGCGAGACCGGCAAAGCCATTTCCCGGAGTCACCTAGTGCAG”, for which the binding signal was 19900 fluorescence intensity (a.u.).

Consider “ACGGTATGAATTTTGCGTCTGGGCACCTGAACGACGAACACGGAGTCACCTAGTGCAG”, for which the binding signal was 5120 fluorescence intensity (a.u.).

Consider “AGCGCGGTGACCGCGTCCACGTGGTGCACCCAGGTGCACCCGGAGTCACCTAGTGCAG”, for which the binding signal was 4140 fluorescence intensity (a.u.).

In the case of “ACAAAAGCACCCGTTCTTTTAAGTAATCATCGCTCGTGCACGGAGTCACCTAGTGCAG”, the binding signal was 3210 fluorescence intensity (a.u.).

Consider “CTATCTCTCACACTGATCCAGGCTCTCTCCACTACTATATCGGAGTCACCTAGTGCAG”, for which the binding signal is 3360 fluorescence intensity (a.u.).

For “GTTAATTGCAGGCTTGTTTGGAAACTTCACACAAATTTTGCGGAGTCACCTAGTGCAG”, the binding signal is 4480 fluorescence intensity (a.u.).

Take “GTTCTCCCGGTGAAATATACTGTTCGCTGCTTTTGTGTGCCGGAGTCACCTAGTGCAG”: the binding signal is 3530 fluorescence intensity (a.u.).

Consider “TCTTTTGGTTTACAACACTTTGTATGCTAGCATTATTTTGCGGAGTCACCTAGTGCAG”, for which the binding signal is 3420 fluorescence intensity (a.u.).

As to “CCACTCAACCTGTCCCCACCACGTCAGTGACTCACTACCCCGGAGTCACCTAGTGCAG”, the binding signal is 10400 fluorescence intensity (a.u.).

Regarding “TGATGGAGCTCACGCTGGCCGACCTGGCCGAGGCCACGTCCGGAGTCACCTAGTGCAG”, the binding signal was 3440 fluorescence intensity (a.u.).

As to “ATGCTGGCGCGTGGTAGCCCAACAATCCCAATCCCCAAATCGGAGTCACCTAGTGCAG”, the binding signal was 4040 fluorescence intensity (a.u.).

Turning to “AACTTATTCCGGATGTCATATAGGTTCAAATGGGCCTCAGCGGAGTCACCTAGTGCAG”, the binding signal is 18300 fluorescence intensity (a.u.).

As for “TTGTTCCACCCTTCACCTGACCACGTGTGCTCCACCCGGCCGGAGTCACCTAGTGCAG”, the binding signal was 9970 fluorescence intensity (a.u.).

Turning to “TACCGTCTTGTGAATTGTGATGTGGAACTGTCAACCGTGTCGGAGTCACCTAGTGCAG”, the binding signal is 4900 fluorescence intensity (a.u.).

As for “CACCTCTAAGATACATGGAATACTACATAGGTCCTGTTTGCGGAGTCACCTAGTGCAG”, the binding signal is 4260 fluorescence intensity (a.u.).

On to “ATGGCAGGACAGCTCACTAACCTGGGAATTGTGTCATGGACGGAGTCACCTAGTGCAG”, for which the binding signal is 3220 fluorescence intensity (a.u.).

Regarding “AATAAATTCTCACAAACTCTTTAGGAAACTGATGTGGTAACGGAGTCACCTAGTGCAG”, the binding signal is 3420 fluorescence intensity (a.u.).

Regarding “GAATTGCACTCCAGGACCATGGGGTTGAAATTTAGTACCTCGGAGTCACCTAGTGCAG”, the binding signal was 3210 fluorescence intensity (a.u.).

Turning to “TCCTCCTTCCCGGCGTCGGTGACGGTGACGAACTAGGTTTCGGAGTCACCTAGTGCAG”, the binding signal is 4140 fluorescence intensity (a.u.).

“TACTAGGTAATGTCTCATCATGTACTAGTTAGCTATATTTCGGAGTCACCTAGTGCAG”: the binding signal was 4000 fluorescence intensity (a.u.).

Take “AAGTTATAACGACTAGAATAGTTAGCATTAACACGTATCACGGAGTCACCTAGTGCAG”: the binding signal is 3840 fluorescence intensity (a.u.).

“CTACATTCATGATGCATAAATTTATGATGTGGATGCAAATCGGAGTCACCTAGTGCAG”: the binding signal was 3960 fluorescence intensity (a.u.).

Turning to “CGTCGGCACCATCCCCGACGTGGCCAGCTTTCTCATCTCGCGGAGTCACCTAGTGCAG”, the binding signal was 6330 fluorescence intensity (a.u.).

“GCATCTTTCGAAGTATATGACTCATCTGAACAACTTGCAACGGAGTCACCTAGTGCAG”: the binding signal is 5980 fluorescence intensity (a.u.).

Take “GGAGATACTGGCACGTAAGGTGCTGACAAAGCCTGTTGAGCGGAGTCACCTAGTGCAG”: the binding signal is 6000 fluorescence intensity (a.u.).

For “TTTATAAAGCTGCCAAATAAAATTTATGTTTAGTTTGTTACGGAGTCACCTAGTGCAG”, the binding signal is 3620 fluorescence intensity (a.u.).

For “AAACAAAACTATGGACTATGATTTGACGTAAGCATCATGTCGGAGTCACCTAGTGCAG”, the binding signal was 4520 fluorescence intensity (a.u.).

With “GTGTGTGTGTGTGTGTGTGTGTGTGTGTGTTTTAGCAACTCGGAGTCACCTAGTGCAG”, the binding signal is 5690 fluorescence intensity (a.u.).

Regarding “GCTTCTTCCCCAACACCTCCATCAACAACGTCACCCTCCGCGGAGTCACCTAGTGCAG”, the binding signal was 4180 fluorescence intensity (a.u.).

On to “CGCGAGGAAGGCGATGACAGGTGGGCCCCACCCGTCAGCGCGGAGTCACCTAGTGCAG”, for which the binding signal is 3340 fluorescence intensity (a.u.).

Regarding “GGGTGGTGATGCATGTGCTTCTACAATCATGTATTGGTTACGGAGTCACCTAGTGCAG”, the binding signal was 3770 fluorescence intensity (a.u.).
